# Results taken from patent US20130184160.
# The chains behind the UniProt entries cited, without tags or fusion partners. Residues count along the entry.
# UniProt P07288, 25-261: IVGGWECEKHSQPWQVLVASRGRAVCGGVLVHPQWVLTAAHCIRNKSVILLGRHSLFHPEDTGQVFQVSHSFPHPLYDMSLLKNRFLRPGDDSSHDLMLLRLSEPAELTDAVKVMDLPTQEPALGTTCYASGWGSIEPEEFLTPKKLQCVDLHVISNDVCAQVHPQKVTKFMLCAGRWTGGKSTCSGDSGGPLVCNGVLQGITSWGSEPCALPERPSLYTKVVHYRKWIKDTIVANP
# The exact form of at least one protein or probe is not confirmed.
# Assays:
# Experiment in all cases: filter binding
# [1] = target: Prostate-specific antigen (PSA), high-pI fraction (UniProt P07288); settings: T positions from B-TTP (quinoline boronic acid dU), purified native protein, protein details: Lee BioSolutions, high pI glycoform fraction, label: alpha-32P-dATP
# [2] = target: Prostate-specific antigen (PSA), low-pI fraction (UniProt P07288); settings: T positions from B-TTP (quinoline boronic acid dU); glycoform specificity control; purified native protein; protein details: Lee BioSolutions, low pI glycoform fraction; label: alpha-32P-dATP; single-stranded …
# [3] = system: Fibrinogen (glycosylated, untreated); settings: purified native protein, label: alpha-32P-dATP, single-stranded DNA
# [4] = system: Fibrinogen, deglycosylated; settings: same buffer, purified native protein, protein details: chemically deglycosylated with TFMS, label: alpha-32P-dATP, single-stranded DNA
# [5] = system: Fibrinogen, periodate-treated; settings: same buffer, purified native protein, protein details: glycans oxidised with sodium periodate, label: alpha-32P-dATP, single-stranded DNA
# [6] = T positions from B-TTP (quinoline-8-boronic acid linked at 5-position of dU via triazole), outside primer
# [7] = T positions from B-TTP (quinoline boronic acid dU)
sequence,measurement,setting,value
CCTTCGTTGTCTGCCTTCGTACTCTAGCCTACGTAATCACGATTACGGATATCGGTTTGCCATCGTCATGACCCTTCAGAATTCGCACCA [PSA aptamer 5D],Kd,[1]; single-stranded DNA,19 nM
same,Kd,[2],750 nM
CCTTCGTTGTCTGCCTTCGTAGCGGATCGAATTACGCGTTAACGGCAACCGATAACGGGACCGATTGCACACCCTTCAGAATTCGCACCA [85A B-TTP (114H)],Kd,"[3]; T positions from B-TTP (quinoline-8-boronic acid linked at 5-position of dU via triazole), outside primer, equilibrium ultrafiltration (Microcon YM-100), 300 mM NaCl, 5 mM MgCl2, 20 mM Tris pH 7.6, 25 C, 6.3 nM in Table 1",6.17 nM
same,Kd,[4]; [6],390 nM
same,Kd,[5]; [6],70.7 nM
CCTTCGTTGTCTGCCTTCGTAGGACCGCAGACATCGACGCAGGGAAATTCCGCAAGTCCAGCCAAATGCCACCCTTCAGAATTCGCACCA [85B B-TTP (114O)],Kd,"[3]; T positions from B-TTP (quinoline boronic acid dU), same buffer, 5.8 nM in Table 1",6.44 nM
same,Kd,[4]; [7],86.2 nM
same,Kd,[5]; [7],118 nM
CCTTCGTTGTCTGCCTTCGTAGTCGACTCTGACGCATGGACGTATCCTGTGCGTATGCATTATGAAGCACACCCTTCAGAATTCGCACCA [85C B-TTP (114F)],Kd,"[3]; T positions from B-TTP (quinoline boronic acid dU), same buffer, 16 nM in Table 1",17.1 nM
same,Kd,[4]; [7],371 nM
same,Kd,[5]; [7],203 nM
CCTTCGTTGTCTGCCTTCGTATATTCGGCGTAGCCATTAGCTTAGCGATTAGCCTATCGGTTTGCCATCGACCCTTCAGAATTCGCACCA [PSA aptamer 5E],Kd,[1]; single-stranded DNA,34 nM
same,Kd,[2],820 nM
CCTTCGTTGTCTGCCTTCGTCTAGGCATATCGGTTTGCCATCGTCGAGCACTTCCGCTACGTAAGATTCCACCCTTCAGAATTCGCACCA [PSA aptamer 5B],Kd,[1]; single-stranded DNA,8 nM
same,Kd,[2],830 nM
CCTTCGTTGTCTGCCTTCGTTATCGGTTTGCCATCGACGGTCGGCACTTCCGCTACCATCTGGCCTAATGACCCTTCAGAATTCGCACCA [PSA aptamer 5A],Kd,"[1]; selected against high-pI PSA, single-stranded …",7 nM
same,Kd,[2],190 nM
CCTTCGTTGTCTGCCTTCGTTTCTACGGTAACCTTATCGGTTTGCCATCGACGGCCGTAATTCGGCATCGACCCTTCAGAATTCGCACCA [PSA aptamer 5C],Kd,[1]; single-stranded DNA,16 nM
same,Kd,[2],670 nM
